Test results: PubChem BioAssay AID1273 (Columbia University Molecular Screening Center, 2008)
Several values for one entry are separate records, joined by “and”; a condition that tells them apart may be missing. Identical values can stand only once. The list shows a part of the results. These are further read-outs of the screen, such as a control signal, another cell line or another target. No call is given for them. The list favours compounds with an active or inconclusive main result.

Assay: inhibitors of insulin promoter-driven GFP, primary screen, imaging, TRM-6 cells (human fetal islet line), eGFP reporter, cell count (AID 1273;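 also: cells exposed to compound for 48 h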)
Details: measured here: cell count, toxicity, at 2 µM, reporter expression induced with tamoxifen

Row | Structure (SMILES) | normalized cell count
1 | Cc1ccc(S(=O)(=O)N(C)C)cc1NC(=O)COC(=O)/C(=C/c1ccc(F)cc1)c1cccs1 | 106%
2 | COCCNC(=O)c1cc(-c2ccc(Cl)c(Cl)c2)on1 | 97.1%
3 | O=c1[nH]c(-c2cccs2)nc2ccccc12 | 210%
4 | Cc1cc(N)n2ncc(-c3cccc(Br)c3)c2n1 | 204%
5 | Fc1ccc(/C=N/Nc2ncnc3nc[nH]c23)cc1F | 105%
6 | O=C(NCc1ccco1)C1CCC(N2C(=O)c3ccccc3C2=O)CC1 (configuration not stated) | 130%
7 | Cc1ccc(NC(=S)c2nc3ccccc3[nH]2)cc1 | 133%
8 | O=C(N/N=C/C=C/c1ccco1)c1cccnc1 | 10.2%
9 | Cc1cccc(-c2nnc(N)s2)c1 | 38.8%
10 | O=C(Nc1ccc2nc(-c3ccco3)[nH]c2c1)c1ccco1 | 102%
11 | Cc1ccc(NC(=O)CNc2ccc(OC(C)C)cc2)c(C)c1 | 96.4%
12 | CCOc1ccc(-n2ccnc2SCC(=O)Nc2nnc(CC)s2)cc1 | 113%
13 | O=C1COc2ccc(C(=O)CSc3nnc(Cc4cccs4)n3-c3ccccc3)cc2N1 | 65.8%
14 | COC(=O)/C(=C/N(C)C)C(=O)N1CCN(c2ccc(Cl)c(Cl)c2)CC1 | 76.2%
15 | CC(C)(CSc1nncn1N)NS(=O)(=O)c1ccc(Cl)cc1 | 56.7%
16 | CCN(CC)c1ccc(/C=N/NC(=S)NCc2ccco2)cc1 | 0.41%
17 | Cc1cc(N)n2ncc(-c3ccccc3)c2n1 | 147%
18 | Cc1cc(C)cc(OCCCC(=O)O)c1 | 97.3%
19 | Cc1nc(NC(=O)C2CC2)sc1C(=O)N(C)C | 125%
20 | CC(=O)Nc1ccc(NC(=O)C(Cc2ccccc2)NC(=O)C2CCCCC2)cc1 (configuration not stated) | 69.4%
21 | O=C(NC1CCCCC1)C(c1ccncc1)N(CC1CCCO1)C(=O)C(F)(F)F (configuration not stated) | 113%
22 | COc1cccc2c1OC1(C)CC2/C(=C(\C)O)C(=O)N1 (configuration not stated) | 77.6%
23 | CCN(C=NC1=NN(c2cccc(C(F)(F)F)c2)CC1)CC | 91.5%
24 | CC(=O)Nc1c(C(=O)c2ccccc2)oc2ccccc12 | 34.8%

Row | Structure (SMILES) | normalized cell count
25 | CCCCCn1c(=O)[nH]c2cc(C(=O)NCc3ccccn3)ccc2c1=O | 86%
26 | CC(=O)c1c(C)nc2ccccc2c1N | 93.6%
27 | CCc1nc(NC(C)C)c2oc3ccccc3c2n1 | 136%
28 | COc1ccc(-n2nnnc2SCC(=O)c2ccc3c(c2)OCCO3)cc1 | 63.2%
29 | CC(/C=N/NC(=O)Cc1cccn1C)=C\c1ccccc1 | 93.2%
30 | O=C(CN1C(=O)S/C(=C/c2cccnc2)C1=O)N1CCOCC1 | 71%
31 | CNC(=S)N(CCc1ccccc1)Cc1cc2cc(OC)c(OC)cc2[nH]c1=O | 98.4%
32 | COc1ccc2nc(C)cc(N3CC(C)OC(C)C3)c2c1 (configuration not stated) | 79.8%
33 | CCOc1cc(-n2nc(C)c(C#N)c2N)nc(SC)n1 | 75%
34 | CCOC(=O)c1c(NC(=O)COC)sc(C)c1C | 85%
35 | Cc1nc2ccccc2n1CC(O)COc1ccccc1Cl (configuration not stated) | 195%
36 | Cn1cc(-c2nc3ccccc3[nH]2)c2ccccc21 | 16.2%
37 | COc1ccc(Cl)cc1-c1nc(-c2ccncc2)no1 | 69.8%
38 | CCCc1nccn1S(=O)(=O)c1cc(OC)ccc1OC | 35.2%
39 | O=C(/C=C/c1ccc2c(c1)OCO2)Nc1ccc(Cl)cn1 | 22.3%
40 | Cc1cccc(OCC(=O)NCCN2CCOCC2)c1 | 154%
41 | Cn1c(=O)c2[nH]c(-c3ccccc3Cl)c(O)c2n(C)c1=O | 86.3%
42 | Cc1ccc(/C=N/Nc2ccc3c(C(F)(F)F)cc(C(F)(F)F)nc3n2)cc1 | 51%
43 | COc1ccc(-c2nc(SC)n(C(=O)c3ccco3)n2)cc1 | 115%
44 | COc1cccc(-c2nc(-c3ccc(NC(=O)c4ccncc4)cc3)no2)c1 | 100%
45 | Cc1cc(C)n(-c2nc3c(c(=O)n(C)c(=O)n3C)n2CC(O)COc2ccccc2C)n1 (configuration not stated) | 131%
46 | O=C1c2ccccc2C2NC(=O)C3(CCCCC3)N12 (configuration not stated) | 126%
47 | CCn1cc(CNC(=O)c2cc(COc3ccc(F)cc3Cl)on2)cn1 | 93.3%
48 | C=CCNc1ncnc2c1cnn2-c1cccc(C)c1 | 149%

Row | Structure (SMILES) | normalized cell count
49 | CCc1ccc(-c2cn3c(n2)SCC3)cc1 | 79.3%
50 | CC(=O)NC(c1ccccc1)c1nc2ccccc2[nH]1 (configuration not stated) | 103%
51 | CCn1cc(C(=O)N2CCc3ccccc32)c(=O)c2cc(S(=O)(=O)N3CCCC3)ccc21 | 148%
52 | Cc1ccccc1OCc1nc2ccccc2[nH]1 | 182%
53 | CCCCCn1nc(C(=O)OCC(=O)c2c(N)n(C)c(=O)n(C)c2=O)c2ccccc2c1=O | 95.6%
54 | COc1cc(S(=O)(=O)Nc2ccc(C)cc2)ccc1N=Cc1c(C)[nH]n(-c2ccccc2)c1=O | 134%
55 | CCSc1nc2ccccc2[nH]1 | 38% and 154%
56 | Cc1cc2ccccc2nc1SCC(=O)N1c2ccccc2CC1C (configuration not stated) | 60.3%
57 | COc1ccc(-c2[nH]ncc2CNCCc2ncccc2C)cc1F | 114%
58 | COc1ccccc1CN1C(=O)[C@@H]2C(CCC(N)=O)NC3(C(=O)Nc4c3ccc(Cl)c4C)[C@@H]2C1=O (some centres not stated) | 86%
59 | O=C(CSc1n[nH]c(-c2ccc(S(=O)(=O)N3CCCCC3)cc2)n1)Nc1nccs1 | 108%
60 | COc1ccc(Cn2nnc3c(=O)[nH]c(C(=O)NCCc4ccc(F)cc4)nc32)cc1OC | 60.5%
61 | O=C(CCSc1nnc(-c2ccco2)o1)Nc1ccc(F)cc1 | 35.9%
62 | CC(O)C(C(=O)OCc1ccc([N+](=O)[O-])cc1)N1C(=O)c2ccccc2C1=O (configuration not stated) | 88.6%
63 | CCOc1c2c(nc3ccc(Cl)cc13)CCC2 | 144%
64 | CCC(CC)NC(=O)c1cccc(Br)c1 | 73.9%
65 | COc1ccccc1/C=C1\CCCC2=C1Nc1nnnn1C2c1ccccc1OC (configuration not stated) | 152%
66 | COCC(C)NC(=O)Cc1ccc(F)cc1 (configuration not stated) | 136%
67 | CCC(C(=O)OCC(=O)Nc1cccc(OC)c1)c1ccccc1 (configuration not stated) | 150%
68 | Cc1ccc2[nH]c3c(=S)nc[nH]c3c2c1 | 146%
69 | CCCc1cc(C(N)=O)c(NC(=O)c2ccoc2C)s1 | 95.6%
70 | C=CCn1c(SCC(=O)Nc2nccs2)nnc1-c1cc2cccc(OC)c2o1 | 125%
71 | O=C(c1ccc(Br)s1)N1CCCC1 | 72.3%
72 | CN=C1SC(CC(=O)NCCc2ccc(OC)c(OC)c2)C(=O)N1C (configuration not stated) | 128%

Row | Structure (SMILES) | normalized cell count
73 | O=C(c1ccco1)N1CCN(c2nc3ccsc3c(=O)s2)CC1 | 139%
74 | CCC(=O)c1ccc(OC(=O)c2cnccn2)cc1 | 136%
75 | Cc1cccc(-n2ncc(C#N)c2N)c1 | 80.3%
76 | CCCCSc1nc(C)[nH]c1[N+](=O)[O-] | 136%
77 | CCSc1nnc(-c2ccccc2NC(C)=O)c(=O)[nH]1 | 50.6%
78 | COC(=O)CS(=O)(=O)c1nnc([C@H](Cc2ccccc2)NC(=O)OC(C)(C)C)o1 | 14.8%
79 | CC(=O)Nc1ccc(Nc2cc(C)nc3c(-c4ccc(Cl)cc4)cnn23)cc1 | 136%
80 | Cc1ccc(CCNC(=O)NC(C)(C)C)cc1 | 122%
81 | c1ccc(-c2csc3ncnc(NCC4COc5ccccc5O4)c23)cc1 (configuration not stated) | 71%
82 | CC(C)Sc1nc2ccccc2n1CC(=O)NCc1ccc2c(c1)OCO2 | 84%
83 | COc1cc(/C=N/n2c(SC)nnc(C(C)(C)C)c2=O)ccc1O | 116%
84 | Clc1ccc(Nc2ncn[nH]2)c(Cl)c1 | 112%
85 | COC(=O)c1ccc2c(=O)n(-c3ccccc3F)c(=S)[nH]c2c1 | 22.7%
86 | O=C(Cc1cc(=O)[nH][nH]1)N/N=C/c1c(Cl)cccc1Cl | 65.4%
87 | C=CCSc1nc2ccccc2n1S(=O)(=O)c1ccc(C)cc1 | 116%
88 | COC(=O)C1=C2SC(C)C(=O)N2C(N)=C(C#N)C1c1ccc(OC)c(OC)c1 (configuration not stated) | 66.1%
89 | COC(=O)c1ccc(C)c(NS(=O)(=O)c2ccc(OC)cc2)c1 | 2.67%
90 | COc1cc(CN2CCN(Cc3ccc(C)cc3)C(CCO)C2)ccc1O (configuration not stated) | 98.4%
91 | NC(=O)c1oc2ccccc2c1NC(=O)c1ccco1 | 136%
92 | CCSc1nc2ccccc2n1C(=O)c1ccc(S(=O)(=O)N2CCCCC2)cc1 | 177%
93 | CC(C)C(=O)Nc1ccc2c(c1)nc1n2CCSC1 | 75.4%
94 | Cc1cc(C(F)(F)F)nc(SCc2ccc(C(=O)O)o2)n1 | 134%
95 | CCOC(=O)N1CCN(C(=O)c2ccc3nc4ccsc4c(=O)n3c2)CC1 | 159%
96 | O=C(NCc1ccccc1)c1cc(-c2ccco2)on1 | 55.3%

Row | Structure (SMILES) | normalized cell count
97 | CCC(Sc1nc2c(cnn2-c2ccc(Cl)cc2)c(=O)[nH]1)C(=O)OC (configuration not stated) | 106%
98 | O=C(Nc1ccc([N+](=O)[O-])cc1)Nc1nc(-c2ccc(Cl)s2)cs1 | 84.9%
99 | Nn1c(Cc2cccc3ccccc23)nnc1SCc1ccc(Cl)c(Cl)c1 | 126%
100 | CCOc1ccc2nc(SCC)[nH]c2c1 | 139%
101 | Cc1nn(C)cc1/C=N\NC(=O)c1ccc(Cn2cc(Cl)cn2)cc1 | 115%
102 | CN1CC(=O)N(CC(=O)Nc2cccc(S(=O)(=O)N3CCOCC3)c2)C1=O | 90%
103 | Cn1c(=O)oc2cc(S(=O)(=O)N3CCN(c4ccc(F)cc4)CC3)ccc21 | 50%
104 | COC(=O)CSc1nc(-c2ccc(C)cc2)c2c(c1C#N)CCCC2 | 86.1%
105 | CCN(C(=O)c1ccc(C)c(Br)c1)c1ccccc1 | 125%
106 | Cc1ccc2nc(N3CCN(Cc4nnnn4C4CCCC4)CC3)c(C#N)cc2c1 | 18.2%
107 | CCOC(=O)c1ccccc1NC(=O)Cn1cnc2c(cnn2-c2ccc(OC)cc2)c1=O | 84.5%
108 | COC(=O)c1cn(CCOc2ccccc2OC)c2ccccc12 | 119%
109 | CCN(CC)C(=O)c1ccc2c(c1)N(Cc1ccccc1)C(=O)CS2=O (configuration not stated) | 83.6%
110 | CCOC(=O)c1c(N2CCCCC2)c2ccccc2[nH]c1=O | 17.1%
111 | Cc1ccc(C)c(S(=O)(=O)N2C(=S)NC(=O)C2C(C)C)c1 (configuration not stated) | 69.2%
112 | Cc1ccc(O)c(CNn2cnnc2)c1 | 82.1%
113 | CCC(C)N(C(=O)COC(=O)CNC(=O)c1ccccc1F)C1CCS(=O)(=O)C1 (configuration not stated) | 80.1%
114 | CCOC(=O)C(C)(C)Sc1nc2c(cnn2-c2ccc(C)cc2)c(=O)[nH]1 | 8.02%
115 | Clc1cncc(Cl)c1N/N=C/c1ccncc1 | 171%
116 | O=C(Oc1ccccc1)c1cccc(COC(=O)c2cnccn2)c1 | 135%
117 | COc1ccccc1N(CC(=O)NC1CCCC1)C(=O)c1csnn1 | 126%
